According to the supplement of paper PMC10077471:
Over roughly 1,900 compounds, “excess over highest single agent (ExcessHSA) synergy score, 6x6 matrix” has its median near -83; the lowest 2% begin near -370. The list shows a part of the results.

System: NCI-H446
Test: excess over highest single agent (ExcessHSA) synergy score, 6x6 matrix; higher = less synergy (more negative = stronger synergy)
Details: 72 h; CellTiter-Glo viability

Row | Compound | excess over highest single agent
1 | Cc1nnc(C(=O)NC(C)(C)c2nc(C(=O)NCc3ccc(F)cc3)c(O)c(=O)n2C)o1 + Cc1sc2c(c1C)C(c1ccc(Cl)cc1)=N[C@@H](CC(=O)OC(C)(C)C)c1nnc(C)n1-2 [NCGC00250412-19] | -100
2 | CC(C)c1nn(-c2c(Cl)cccc2Cl)c2nc(Cc3ccc(OCCO)cc3)[nH]c(=O)c12 + Cc1sc2c(c1C)C(c1ccc(Cl)cc1)=N[C@@H](CC(=O)OC(C)(C)C)c1nnc(C)n1-2 [NCGC00250412-19] | -167
3 | O=C(NC[C@H]1CN(c2ccc(N3CCOCC3=O)cc2)C(=O)O1)c1ccc(Cl)s1 + Cc1sc2c(c1C)C(c1ccc(Cl)cc1)=N[C@@H](CC(=O)OC(C)(C)C)c1nnc(C)n1-2 [NCGC00250412-19] | -16.6
4 | CC[C@H](/C=C/[C@@H](C)[C@H]1CC[C@H]2[C@@H]3CC=C4C[C@@H](O)CC[C@]4(C)[C@H]3CC[C@]12C)C(C)C + Cc1sc2c(c1C)C(c1ccc(Cl)cc1)=N[C@@H](CC(=O)OC(C)(C)C)c1nnc(C)n1-2 [NCGC00250412-19] | -106
5 | O=C(O)c1cn(-c2ccc(F)cc2)c2cc(N3CCNCC3)c(F)cc2c1=O + Cc1sc2c(c1C)C(c1ccc(Cl)cc1)=N[C@@H](CC(=O)OC(C)(C)C)c1nnc(C)n1-2 [NCGC00250412-19] | -102
6 | Oc1ccc(C2CCN(c3ccnc4ccccc34)CC2)cc1O + Cc1sc2c(c1C)C(c1ccc(Cl)cc1)=N[C@@H](CC(=O)OC(C)(C)C)c1nnc(C)n1-2 [NCGC00250412-19] | -257
7 | COC(=O)[C@H](c1ccccc1Cl)N1CCc2sccc2C1 + Cc1sc2c(c1C)C(c1ccc(Cl)cc1)=N[C@@H](CC(=O)OC(C)(C)C)c1nnc(C)n1-2 [NCGC00250412-19] | -20.3
8 | CC(C)(C)COc1ccc(-n2cc(C(=O)O)cn2)cc1C#N + Cc1sc2c(c1C)C(c1ccc(Cl)cc1)=N[C@@H](CC(=O)OC(C)(C)C)c1nnc(C)n1-2 [NCGC00250412-19] | -14.1
9 | COCCCC/C(=N\OCCN)c1ccc(C(F)(F)F)cc1 + Cc1sc2c(c1C)C(c1ccc(Cl)cc1)=N[C@@H](CC(=O)OC(C)(C)C)c1nnc(C)n1-2 [NCGC00250412-19] | -161
10 | NC(=O)N1CCC(CC(=O)N2CCC([C@H]3c4ncc(Br)cc4CCc4cc(Cl)cc(Br)c43)CC2)CC1 + Cc1sc2c(c1C)C(c1ccc(Cl)cc1)=N[C@@H](CC(=O)OC(C)(C)C)c1nnc(C)n1-2 [NCGC00250412-19] | -328
11 | O=C(Nc1cc(C(F)(F)F)cc(C(F)(F)F)c1)c1cc(Cl)ccc1O + Cc1sc2c(c1C)C(c1ccc(Cl)cc1)=N[C@@H](CC(=O)OC(C)(C)C)c1nnc(C)n1-2 [NCGC00250412-19] | -78.6
12 | COc1ccc(-c2coc3cc(O)ccc3c2=O)cc1 + Cc1sc2c(c1C)C(c1ccc(Cl)cc1)=N[C@@H](CC(=O)OC(C)(C)C)c1nnc(C)n1-2 [NCGC00250412-19] | -134
13 | CNc1nc(-c2ccc3c(N)n[nH]c3c2)cc(N2C[C@@H](C(=O)NC3CCCCC3)CC[C@H]2C)n1 + Cc1sc2c(c1C)C(c1ccc(Cl)cc1)=N[C@@H](CC(=O)OC(C)(C)C)c1nnc(C)n1-2 [NCGC00250412-19] | -113
14 | O=C1C(c2c(O)[nH]c3ccccc23)=Nc2ccccc21 + Cc1sc2c(c1C)C(c1ccc(Cl)cc1)=N[C@@H](CC(=O)OC(C)(C)C)c1nnc(C)n1-2 [NCGC00250412-19] | 13.8
15 | CS(=O)(=O)c1ccc(C(=O)Nc2ccc(Cl)c(-c3ccccn3)c2)c(Cl)c1 + Cc1sc2c(c1C)C(c1ccc(Cl)cc1)=N[C@@H](CC(=O)OC(C)(C)C)c1nnc(C)n1-2 [NCGC00250412-19] | -168
16 | CC(C)C[C@H](NC(=O)[C@H](Cc1ccccc1)NC(=O)c1cnccn1)B(O)O + Cc1sc2c(c1C)C(c1ccc(Cl)cc1)=N[C@@H](CC(=O)OC(C)(C)C)c1nnc(C)n1-2 [NCGC00250412-19] | -138
17 | Clc1ccccc1C(c1ccccc1)(c1ccccc1)n1cccn1 + Cc1sc2c(c1C)C(c1ccc(Cl)cc1)=N[C@@H](CC(=O)OC(C)(C)C)c1nnc(C)n1-2 [NCGC00250412-19] | 11.7
18 | CC1(C)CCC(c2ccc(Cl)cc2)=C(CN2CCN(c3ccc(C(=O)NS(=O)(=O)c4ccc(N[C@H](CCN5CCOCC5)CSc5ccccc5)c(S(=O)(=O)C(F)(F)F)c4)cc3)CC2)C1 + Cc1sc2c(c1C)C(c1ccc(Cl)cc1)=N[C@@H](CC(=O)OC(C)(C)C)c1nnc(C)n1-2 [NCGC00250412-19] | -251
19 | Nc1nc(F)nc2c1ncn2[C@@H]1O[C@H](COP(=O)(O)O)[C@@H](O)[C@@H]1O + Cc1sc2c(c1C)C(c1ccc(Cl)cc1)=N[C@@H](CC(=O)OC(C)(C)C)c1nnc(C)n1-2 [NCGC00250412-19] | -21.9

Row | Compound | excess over highest single agent
20 | O=C(NOCC1CC1)c1ccc(F)c(F)c1Nc1ccc(I)cc1Cl + Cc1sc2c(c1C)C(c1ccc(Cl)cc1)=N[C@@H](CC(=O)OC(C)(C)C)c1nnc(C)n1-2 [NCGC00250412-19] | -117
21 | CCOC(=O)N1CCC(=C2c3ccc(Cl)cc3CCc3cccnc32)CC1 + Cc1sc2c(c1C)C(c1ccc(Cl)cc1)=N[C@@H](CC(=O)OC(C)(C)C)c1nnc(C)n1-2 [NCGC00250412-19] | -241
22 | O=C(Nc1ccc(F)c(C(F)(F)F)c1)Nc1nnc(-c2ccncc2)s1 + Cc1sc2c(c1C)C(c1ccc(Cl)cc1)=N[C@@H](CC(=O)OC(C)(C)C)c1nnc(C)n1-2 [NCGC00250412-19] | 396
23 | CC[C@H]1OC(=O)[C@H](C)[C@@H](O[C@H]2C[C@@](C)(OC)[C@@H](O)[C@H](C)O2)[C@H](C)[C@@H](O[C@@H]2O[C@H](C)C[C@H](N(C)C)[C@H]2O)[C@](C)(O)C[C@@H](C)C(=O)[C@H](C)[C@@H](O)[C@]1(C)O + Cc1sc2c(c1C)C(c1ccc(Cl)cc1)=N[C@@H](CC(=O)OC(C)(C)C)c1nnc(C)n1-2 [NCGC00250412-19] | 118
24 | CC1=C(/C=C/C(C)=C/C=C/C(C)=C/C=C/C=C(C)/C=C/C=C(C)/C=C/C2=C(C)CCCC2(C)C)C(C)(C)CCC1 + Cc1sc2c(c1C)C(c1ccc(Cl)cc1)=N[C@@H](CC(=O)OC(C)(C)C)c1nnc(C)n1-2 [NCGC00250412-19] | 219
25 | CO[C@H]1[C@H](O)[C@@H](O)[C@H](n2c3c(Cl)cccc3c3c4c(c5c6cccc(Cl)c6[nH]c5c32)C(=O)NC4=O)O[C@@H]1CO + Cc1sc2c(c1C)C(c1ccc(Cl)cc1)=N[C@@H](CC(=O)OC(C)(C)C)c1nnc(C)n1-2 [NCGC00250412-19] | -234
26 | CC(C)(C)[C@]1(O)CC2OC(=O)CC23C(=O)OC2OC(=O)[C@H](O)C231 (some centres not stated) + Cc1sc2c(c1C)C(c1ccc(Cl)cc1)=N[C@@H](CC(=O)OC(C)(C)C)c1nnc(C)n1-2 [NCGC00250412-19] | 27.7
27 | CCOC(=O)/C=C/[C@H](C[C@@H]1CCNC1=O)NC(=O)[C@@H](CC(=O)[C@@H](NC(=O)c1cc(C)on1)C(C)C)Cc1ccc(F)cc1 + Cc1sc2c(c1C)C(c1ccc(Cl)cc1)=N[C@@H](CC(=O)OC(C)(C)C)c1nnc(C)n1-2 [NCGC00250412-19] | -127
28 | OCCN1CCN(CCCN2c3ccccc3Sc3ccc(C(F)(F)F)cc32)CC1 + Cc1sc2c(c1C)C(c1ccc(Cl)cc1)=N[C@@H](CC(=O)OC(C)(C)C)c1nnc(C)n1-2 [NCGC00250412-19] | -307
29 | CC(C)Nc1cc(C(F)(F)F)cc2nc(NC(=O)c3cccnc3)nn12 + Cc1sc2c(c1C)C(c1ccc(Cl)cc1)=N[C@@H](CC(=O)OC(C)(C)C)c1nnc(C)n1-2 [NCGC00250412-19] | 144
30 | Cc1cc(SCc2sc(-c3ccc(C(F)(F)F)c(F)c3)nc2C)ccc1OCC(=O)O + Cc1sc2c(c1C)C(c1ccc(Cl)cc1)=N[C@@H](CC(=O)OC(C)(C)C)c1nnc(C)n1-2 [NCGC00250412-19] | 44
31 | O=C(c1cc(Cc2n[nH]c(=O)c3ccccc23)ccc1F)N1CCN(C(=O)C2CC2)CC1 + Cc1sc2c(c1C)C(c1ccc(Cl)cc1)=N[C@@H](CC(=O)OC(C)(C)C)c1nnc(C)n1-2 [NCGC00250412-19] | -192
32 | O=C(O)CCCc1c[nH]c2ccccc12 + Cc1sc2c(c1C)C(c1ccc(Cl)cc1)=N[C@@H](CC(=O)OC(C)(C)C)c1nnc(C)n1-2 [NCGC00250412-19] | 51.4
33 | COCCOC(=O)C1=C(C)NC2=C(C(=O)CC(c3ccccc3OC)C2)C1c1cccc(O)c1 (configuration not stated) + Cc1sc2c(c1C)C(c1ccc(Cl)cc1)=N[C@@H](CC(=O)OC(C)(C)C)c1nnc(C)n1-2 [NCGC00250412-19] | -83.4
34 | CC(C)[C@@H](C)/C=C/[C@@H](C)[C@H]1CC[C@H]2C3=CC=C4C[C@@H](O)CC[C@]4(C)[C@H]3CC[C@]12C + Cc1sc2c(c1C)C(c1ccc(Cl)cc1)=N[C@@H](CC(=O)OC(C)(C)C)c1nnc(C)n1-2 [NCGC00250412-19] | -180
35 | Clc1ccc2c(c1)C(N1CCNCC1)=Nc1ccccc1O2 + Cc1sc2c(c1C)C(c1ccc(Cl)cc1)=N[C@@H](CC(=O)OC(C)(C)C)c1nnc(C)n1-2 [NCGC00250412-19] | -234
36 | Cc1ccc(N(CC2=NCCN2)c2cccc(O)c2)cc1 + Cc1sc2c(c1C)C(c1ccc(Cl)cc1)=N[C@@H](CC(=O)OC(C)(C)C)c1nnc(C)n1-2 [NCGC00250412-19] | -239
37 | CCc1ccc(CCOc2ccc(CC3SC(=O)NC3=O)cc2)nc1 (configuration not stated) + Cc1sc2c(c1C)C(c1ccc(Cl)cc1)=N[C@@H](CC(=O)OC(C)(C)C)c1nnc(C)n1-2 [NCGC00250412-19] | 53.8

Another view of part of the listing above.
CC(C)Nc1cc(C(F)(F)F)cc2nc(NC(=O)c3cccnc3)nn12 + Cc1sc2c(c1C)C(c1ccc(Cl)cc1)=N[C@@H](CC(=O)OC(C)(C)C)c1nnc(C)n1-2 [NCGC00250412-19]
  excess over highest single agent: 144
Cc1cc(SCc2sc(-c3ccc(C(F)(F)F)c(F)c3)nc2C)ccc1OCC(=O)O + Cc1sc2c(c1C)C(c1ccc(Cl)cc1)=N[C@@H](CC(=O)OC(C)(C)C)c1nnc(C)n1-2 [NCGC00250412-19]
  excess over highest single agent: 44
